From patent US20240025858A1, “CANNABINOID DERIVATIVES AS […] ACTIVE COMPOUNDS AND METHOD OF PREPARATION THEREOF” (GW Research Limited, priority 2020, published 2024)

Test system: mouse model of generalised seizure
Assay: MEST (maximal electroshock seizure threshold) test in the mouse
Details: diazepam 2.5 mg/kg i.p., test 30 min post dose
Procedure: The efficacy of the cannabinoid derivative of 1 was tested in a mouse model of generalised seizure, the maximal electroshock seizure threshold (MEST) test.
The protocol according to Example 2 was followed, with the current lowered or raised in intervals of 5 mA instead of log scale intervals.

CN1C(=O)CN=C(c2ccccc2)c2cc(Cl)ccc21 [Diazepam, diazepam, reference compound]
CC50 +/− SEM: 84.2 mA | CC50 +/− SEM (listed as diazepam): 84.2 mA
